In all, about 31,000 sequences went through this assay and about 1,400 (4.5%) were called active.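 Rule for the calls: active = median seed-adjusted z-score above 1 or below -1; inactive = the rest.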 The list shows a part of the results.
Assay: Novel Modifiers of Survival Motor Neuron (SMN) Protein: Gene Identification via Genome-wide siRNA Screen;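 note: luminescence tracks full-length SMN protein made from the SMN2 reporter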
Conditions: HEK293T SMN2-luciferase reporter, siRNA knockdown, 72 h; actives lie on both sides
How it was run: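 HEK293T cells stably expressing an SMN2 splicing/cDNA-luciferase reporter were reverse-transfected with a druggable-genome siRNA library and read by luminescence at 72 hours; hits defined by MAD score above 1.0 or below -1.0.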

Sequence | median seed-adjusted z-score
CCCUGAACAAGAUCUCCAATT against GPR109B | inactive: 0.321
GGAAGAACUUUAUAACCGATT against NPEPPS | inactive: 0
GCUCACCACCUGUAACAUUTT against SLC18A3 | inactive: -0.392
GGUCUAUUGGGAUAAUGGATT against PGM2 | inactive: 0.355
GCAGAAAAGCUGUCCGAUUTT against ZNF516 | inactive: 0.56
UGAUGACACCAACCACGAATT against CNP | inactive: -0.116
AGGCAGAAUUCACCAGUGATT against SIRPB2 | inactive: 0
GGGCAAAUGUUGUUUACUATT against PON2 | inactive: 0
UCACCACUGUGGAUCUGAATT against CLIC5 | inactive: 0
AGACAGAGGUCGACAUUUATT against MGLL | inactive: 0.288
GCGGAGUUGGGUACAGAGATT against ZNF212 | inactive: 0.863
GGACGUGACCUCAAACUUUTT against CBX8 | inactive: -0.207
CGUACACUCUCUCCAGGCATT against PGLYRP1 | inactive: -0.559
AGUGGACAACAGAACAAUATT against SNRPG | active: -3.09
GGUCUUCCAUAAUAUGUCATT against ZNF83 | inactive: 0.118
CCCUGGAACUAAUCAGACATT against TTC8 | inactive: 0
AGAACUUCAGUGCGCCUUATT against HOXA1 | inactive: 0
GAGUCAAAGUUUGAUGUCATT against UGT2B15 | inactive: 0.421
CCCAAUGCCUGUUUAUUCATT against POLR2J3 | active: -5.42
GGGAGGACCUGAACAAGAATT against TAOK2 | inactive: 0.28
GCGUGGAGUUUAUGCAGAUTT against SCGN | inactive: -0.0164
UGACAUACCAGGAAAGAUATT against LPCAT3 | inactive: -0.388

Sequence | median seed-adjusted z-score
GUAUCGGGCUAAUCGAGAATT against E2F4 | inactive: -0.395
GAGAGAAUAUACUACAAUUTT against PRKRA | inactive: 0.00259
GCAAUGAGGGCUUCACCUATT against ALDH3B2 | inactive: 0.171
CAGAUAUGAUUGGUGUAAATT against CABP1 | inactive: -0.192
CAUUCGCAUUCAGUCCAUATT against FRAP1 | active: -1.02
AGCCUGUGAUGACUACAGATT against MGP | inactive: -0.0854
GCAUCUCCGUGUACAUGUUTT against P2RY1 | inactive: -0.844
GUGUCUUCGUCAAAUUACATT against ST13 | inactive: 0.286
GCCGAGAAGCGACCAUUCATT against SOX3 | inactive: 0.32
GGCUCAUGUUUACAGCUUUTT against NFKB1 | inactive: 0.31
ACAGAGAUAUUCCCACGGATT against ZNF282 | inactive: 0.274
GAAUCGCCUUCAUCAGUCATT against ARID4B | inactive: 0.211
GAAGCACGGUGACAUCUUUTT against PTGIS | inactive: 0
GAAGGAUGUUGAGAACGAUTT against PPP2R3A | inactive: 0.175
CCGGUCAACUGUUACGUAUTT against GJA5 | inactive: 0.707
CCCUUACCUUAAUCGACGATT against CRB1 | inactive: 0
GGAUGAGUAUAUUGCGGAUTT against RCN1 | inactive: 0.236
GCAAGGCUUUGAGACUAAATT against ADK | inactive: 0.198
GGUUACUGCCAAUACAAUGTT against SF1 | inactive: 0.795
CUCUUACACUUGAUGUACATT against ZBTB2 | inactive: 0.217
GGAUAUAGCCUUUUAACCUTT against KLKB1 | inactive: -0.256
AUCACGACGUGGACCCUGATT against ZSCAN5A | inactive: 0.31

Single entries from the list.
Value of GCGGAGUUGGGUACAGAGATT against ZNF212 under median seed-adjusted z-score: inactive: 0.863
Value of UGACAUACCAGGAAAGAUATT against LPCAT3 under median seed-adjusted z-score: inactive: -0.388
Value of CAGAUAUGAUUGGUGUAAATT against CABP1 under median seed-adjusted z-score: inactive: -0.192
Value of GAAGCACGGUGACAUCUUUTT against PTGIS under median seed-adjusted z-score: inactive: 0

The results go on:

Sequence | median seed-adjusted z-score
GGCGAGAUCCGGACUCUAATT against DFFA | inactive: -0.494
GCCCAUUCCUGUUUGCUGUTT against AGT | inactive: -0.121
GUACCAGACCGGAUCACUATT against PDE10A | inactive: -0.382
CAAAGUGACCAAGCAGAGATT against SF3A2 | active: -1.7
GCGGAGUCAUGGACAAGGATT against 1-Sep | inactive: 0.0103
CCUUAAUGCUCAUCAGAGATT against ZNF26 | inactive: 0
GACAAAGUCUGUCACCCAATT against ZSCAN22 | inactive: 0.277
GGAUCACACUGGAUGCUCATT against MLLT4 | inactive: -0.0762
GGAAGGCUGCGGAUAAGCUTT against S100A16 | inactive: 0.24
GAACCAGGAGAGAAUAGAATT against PDGFRL | inactive: 0.0203
GGGUAUUAGCCGACAGUAATT against CPEB1 | inactive: -0.349
GCGGAAGUCUUACUCAAUATT against ELF4 | inactive: -0.0311
AGACAAAGAUUGAUAAACATT against SLC24A3 | inactive: 0.0177
ACAGCGAGGUCAAAAGAAATT against HSD11B1 | inactive: -0.174
GCAUGUGCGUCAAUACCGATT against GCK | inactive: -0.286
CUGGUACAGUGAUCGGGAATT against PCDH12 | inactive: 0.0177
GCAGCAACCCAAUAGGUCATT against RGL4 | inactive: 0.201
GAAUUAUGACCAACAUCUATT against CCR3 | inactive: -0.334
GACAAUUGGUCAGAUAGAATT against RNASET2 | inactive: -0.126
GGACAGGAAUGUCAAAAUATT against SYTL3 | inactive: 0.236
CCUUCACUCGCGAUAACAATT against COPS3 | inactive: 0.176
GCAGAAAGGUGUAGAAUGUTT against ZIM3 | inactive: -0.02

Sequence | median seed-adjusted z-score
CAAGCUAGAUCAGAAGUAUTT against SERPINA10 | inactive: 0.0233
GAACGAAGAUGUAACUGUUTT against TOM1L1 | inactive: -0.0722
GGAAGAAUGUGGAGCUCAATT against ADRBK1 | inactive: 0
GCUCUGAGAUCAAAUCCGATT against TCF4 | inactive: 0.107
GGAAUAGUUCAACUACGAATT against CUL5 | inactive: 0.0143
GGCAUUGCUUAAUGAUAUATT against SF3B1 | active: -3.65
GCUCGGACUUCAACAACUATT against PPAP2C | active: -1.12
AGGCCUUUCUUACCCAGAATT against MAP2K1 | inactive: 0.942
GGGCUGGAUUGGUACAGGATT against HS3ST2 | inactive: 0.133
GGAUUAUCUCCUCAUUACATT against MCF2L2 | inactive: -0.465
GCUUUGGAGAUGAGCCGUATT against CLPB | inactive: -0.985
CACUAACUAUCAUGAGAUATT against PSMC6 | inactive: -0.578
CCAGAAACGUACACCUGAUTT against COX7B | active: -1.16
CAACGGCAAUCAAGCGUAATT against SRP68 | inactive: 0.721
GGCUCGUCCUUCCAAGUUATT against SLC23A2 | inactive: -0.0585
CGUCGUCACUAACAGUCAATT against FCGRT | inactive: -0.00396
GGAUUUCCCUGCAUCGACATT against GALNT4 | inactive: 0.419
GGUUGUAGUUUACGAUCAATT against DUSP16 | inactive: 0
GACUCAUAUAUUACAUCAATT against ADAM23 | inactive: -0.0279
GGGAGAACGUGACCAUCUATT against ICAM5 | active: -1
UGAUCGCCUUGGUGAUUCATT against FOXH1 | inactive: 0
GGGCUUUUACUACAAGGAUTT against HR | inactive: 0.751

Sequence | median seed-adjusted z-score
UCAACUUUACGUGCACUGATT against HLA-B | inactive: -0.355
GGCAGUUCAGUUUUUCGUATT against DNAJC7 | inactive: 0.268
ACAAAGAGUUGAACAAAGATT against SEMA4A | inactive: 0.0377
ACCACUUUGAGGUCACUUUTT against TP73 | inactive: 0.353
GAAUGAUAAUUGUUGGAGUTT against SLC18A2 | inactive: 0.777
GAGUGGACACUAACCACAATT against SCNN1G | inactive: -0.616
CAAGCCUAGUGCUUCGUUUTT against RAB5A | inactive: 0.244
CUCAGGAUGUUGUAUCUAATT against CEBPZ | inactive: 0.301
CAGAGAACCUUCAAGUUAATT against ZNF239 | inactive: -0.191
CUCUGCUUAUCAUCAUCUATT against OPN4 | inactive: 0.167
GGGCAUCAAUUAUCGACUUTT against SLC16A1 | inactive: -0.277
AGAUGAAGCUGCAAGUGUATT against COX10 | inactive: 0.339
ACAUAGCCGUGUCCAGGUATT against GLYCTK | inactive: 0.0328
GCAUGGGCAACAAGAGUCATT against ATAD3C | inactive: -0.535
GGAUGUCAACUGUGCUUUUTT against MED24 | active: -2.3
CCCUAAGGUUGACAAUUGATT against GABRG2 | inactive: -0.479
CGUCAUGAGCCUCUACGAATT against PTPN5 | inactive: 0.22
GGACUAGGAUAUGCCGUGATT against MYH15 | inactive: -0.939
GCCUGCAACUCAUCUUUCATT against S100A1 | inactive: 0
CGACAAGUGGGAGAUGGAATT against ABL1 | inactive: -0.181
